These are yes or no findings as the source states them, for the method shown. Binding seen in cells or lysates may run through a third protein. Some results given as binding are weak or reduced against the parent protein; the word gives no strength.

Protein sequences, listed by entry. Tags and fused reporters are not part of them. Residues count along the entry.
UniProt P03107: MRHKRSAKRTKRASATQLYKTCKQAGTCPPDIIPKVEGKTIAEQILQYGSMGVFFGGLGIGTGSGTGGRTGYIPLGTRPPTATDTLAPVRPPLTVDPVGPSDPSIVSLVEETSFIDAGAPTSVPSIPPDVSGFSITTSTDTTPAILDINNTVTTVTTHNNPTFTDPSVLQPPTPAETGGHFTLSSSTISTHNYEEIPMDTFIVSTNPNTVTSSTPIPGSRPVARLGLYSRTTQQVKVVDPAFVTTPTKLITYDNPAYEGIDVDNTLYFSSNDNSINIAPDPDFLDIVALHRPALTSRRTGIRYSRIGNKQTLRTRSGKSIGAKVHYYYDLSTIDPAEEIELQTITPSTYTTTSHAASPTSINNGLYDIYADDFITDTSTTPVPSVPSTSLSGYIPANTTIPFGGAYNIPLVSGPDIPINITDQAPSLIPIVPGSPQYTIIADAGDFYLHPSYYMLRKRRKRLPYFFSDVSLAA
UniProt Q92542, residues 34-709: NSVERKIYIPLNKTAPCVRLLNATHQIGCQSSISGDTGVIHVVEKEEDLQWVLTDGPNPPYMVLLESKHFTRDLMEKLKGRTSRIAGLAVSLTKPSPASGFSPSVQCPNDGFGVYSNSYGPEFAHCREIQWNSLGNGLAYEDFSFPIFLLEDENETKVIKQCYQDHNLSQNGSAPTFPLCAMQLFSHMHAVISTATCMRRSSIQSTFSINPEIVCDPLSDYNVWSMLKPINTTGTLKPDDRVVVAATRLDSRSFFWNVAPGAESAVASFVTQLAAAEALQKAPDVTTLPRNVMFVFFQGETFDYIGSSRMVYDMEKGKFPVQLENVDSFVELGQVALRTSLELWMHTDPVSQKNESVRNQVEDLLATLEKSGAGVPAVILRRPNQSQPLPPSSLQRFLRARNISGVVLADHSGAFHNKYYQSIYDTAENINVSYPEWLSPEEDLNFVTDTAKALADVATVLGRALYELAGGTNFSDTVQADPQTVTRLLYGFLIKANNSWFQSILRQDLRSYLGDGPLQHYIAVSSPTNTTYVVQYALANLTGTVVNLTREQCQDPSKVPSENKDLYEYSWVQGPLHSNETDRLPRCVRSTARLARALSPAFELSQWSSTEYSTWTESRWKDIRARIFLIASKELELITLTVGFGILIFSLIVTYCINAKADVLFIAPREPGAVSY
UniProt Q9NZ42: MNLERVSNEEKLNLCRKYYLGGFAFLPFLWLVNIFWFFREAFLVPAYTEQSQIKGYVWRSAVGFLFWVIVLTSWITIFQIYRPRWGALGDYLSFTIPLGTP

The target in this test is HPV16 L2 minor capsid protein, wild type, with three tandem FLAG tags at the C-terminus (in HPV16 PsV) (human papillomavirus type 16) (UniProt P03107). Put plainly: co-IP.

Regarding “nicastrin (NCT), subunit of γ-secretase (from UniProt Q92542 34-709)”, the binding entry was “binds”.
“PEN2, subunit of γ-secretase (from UniProt Q9NZ42 1-101)”: the binding result is “binds”.
